Where “and” joins values, the source holds several entries; their conditions need not be identical. Identical values can stand only once. The list shows a part of the results. Many values rest on one well or one pass, so single values are uncertain.
Key:
[1] = system: MEPP (mouse ovarian epithelium Trp53/Pten KO); experiment: cell viability relative to untreated (fraction); higher = less growth inhibition; conditions: 5 µM; 3 days
[2] = system: PREPP (mouse prostate epithelium Trp53/Pten KO); experiment: as above; conditions: 5 µM; 3 days

SMILES	cell viability [1]	cell viability [2]
CC(NC(=O)c1ccccc1/N=C/c1c(O)ccc2ccccc12)c1ccccc1 (stereo unspecified)	0.825	0.834
O=C(O)C(Cc1c[nH]c2ccccc12)N1C(=O)c2ccccc2C1=O (stereo unspecified)	1.07	0.972
CO[C@@H]1[C@H](N(C)C(=O)c2ccccc2)C[C@H]2O[C@]1(C)n1c3ccccc3c3c4c(c5c6ccccc6n2c5c31)C(=O)NC4	0.538	0.471
C=CC(=O)c1ccc2ccccc2c1	0.843	1.18
O=C(/C=C/c1ccc(CN(CCO)CCc2c[nH]c3ccccc23)cc1)NO	0.504	0.616
CCCCCCCCCCCCCC(=S)NCCCC[C@H](NC(=O)OCc1ccccc1)C(=O)Nc1ccccc1	1.07	0.94
CCS(=O)(=O)N1CC(CC#N)(n2cc(-c3ncnc4[nH]ccc34)cn2)C1	0.996 and 1.1	0.891 and 1
O=[N+]([O-])c1ccc(Sc2cccc[n+]2[O-])c2nonc12	0.852	0.67
CCOC(=O)CCNc1cc(N2CCc3ccccc3CC2)nc(-c2ccccn2)n1	0.752	0.72
CC(C)N(CCC(=O)c1ccc2ccccc2c1)Cc1ccccc1	0.833	0.814
COc1ccccc1S(=O)(=O)Nc1ccc2c(c1)CN(C)C(=O)N2	0.765	0.688
O=Nc1ccc(O)c2ncccc12	0.702	0.678
COC1CCN(C(=O)c2cc(Cc3n[nH]c(=O)c4ccccc34)ccc2F)CC1	0.843	0.946
COc1cc(Nc2ncc3c(n2)-c2ccc(Cl)cc2C(c2c(F)cccc2OC)=NC3)ccc1C(=O)O	0.558	0.586
C[C@@H]1O[C@@H](CC(=O)O)CC2=C1C(=O)c1c(O)cccc1C2=O	0.128	0.257
O=S(=O)(NCCSSCCNS(=O)(=O)c1cc(Cl)ccc1Cl)c1cc(Cl)ccc1Cl	0.805	1.1
CC1COc2c(N3CCN(C)CC3)c(F)cc3c(=O)c(C(=O)O)cn1c23 (stereo unspecified)	0.799	0.989
COc1cc2c(Nc3ccc(NC(=O)c4ccccc4)cc3)ncnc2cc1OCCCN1CCOCC1	0.887	0.722
NC(N)=N/N=C/c1ccccc1Cl	1.1	0.877
CC(C)N(C[C@H]1O[C@@H](n2cnc3c(N)ncnc32)[C@H](O)[C@@H]1O)[C@H]1C[C@@H](CCc2nc3cc(C(C)(C)C)ccc3[nH]2)C1	0.809	0.877
Cc1cc(Nc2cc(CN3CCOCC3)c3nc(C)c(Cc4ccc(Cl)cc4F)n3n2)n[nH]1	0.821	0.805

SMILES	cell viability [1]	cell viability [2]
O=C(c1cccc(Cl)c1F)N1CCN(Cc2cccc(Nc3nccs3)n2)CC1	0.525	0.829
Cc1cc(Nc2ccc(NC(=O)c3ccc(Nc4ccnc5ccccc45)cc3)cc2)nc(N)n1	1.02	1.04
O=C(NCC1(c2nc(-c3ccccc3)cs2)CCOCC1)c1cccc(-c2noc(C(F)(F)F)n2)c1	0.949	0.954
COc1cc2c(NC3CCN(C4CCCCC4)CC3)nc(N3CCCN(C(C)C)CC3)nc2cc1OCCCN1CCCCC1	0.765	0.802
CC(C)(C)c1nc2c3cc[nH]c(=O)c3c3cc(F)ccc3c2[nH]1	0.727	0.711
NC(=O)c1cccc2cn(-c3ccc([C@@H]4CCCNC4)cc3)nc12	0.9	0.835
O=C(CCCCCCC(=O)Nc1ccc(I)cc1)NO	0.475	0.67
CCS(=O)(=O)N1CCC([C@@H](C)n2c(C)c(C(=O)NCc3c(OC)cc(C)[nH]c3=O)c3ccccc32)CC1	0.979	0.814
CCOC(=O)Nc1cc(-c2ccc(C)c(NS(C)(=O)=O)c2)nn2c(C)nnc12	0.668	0.623
O=C(Nc1ccc(-c2ccnc(Nc3ccc(N4CCOCC4)cc3)n2)cc1)C1CCCN1 (stereo unspecified)	0.926	0.699
O=Nc1c(-c2c(O)[nH]c3cc(Br)ccc23)[nH]c2ccccc12	0.708	0.371
O=C(CCCCCCC(=O)Nc1ccccc1)NO	0.809	0.721
CCC(=O)Nc1cccc(Oc2nc(Nc3ccc(N4CCN(C)CC4)cc3OC)ncc2Cl)c1	0.944	0.996
C[C@H](NC(=O)/C(C#N)=C/c1cccc(Br)n1)c1ccccc1	0.896	0.874
O=C(CCCCCCC(=O)Nc1ccc([C@H]2O[C@@H](CSc3nc(-c4ccccc4)c(-c4ccccc4)o3)C[C@@H](c3ccc(CO)cc3)O2)cc1)NO	0.84	1.06
c1nc2c(NC3CCCCC3)nc(Nc3ccc(N4CCOCC4)cc3)nc2[nH]1	0.428	0.605
COc1ccc(C2(CNC(=O)c3ccc(NC(=O)c4ccco4)cc3)CCOCC2)cc1	0.765	0.87
CCC(Sc1nnc2c(n1)[nH]c1ccccc12)C(=O)N1c2ccccc2Sc2ccccc21 (stereo unspecified)	0.715	0.742
Cc1cc(Nc2cc(N3CCN(C)CC3)nc(/C=C/c3ccccc3)n2)n[nH]1	0.634 and 0.651	0.642 and 0.573
N#Cc1c(Oc2ccc(F)c(NC(=O)Cc3cccc(C(F)(F)F)c3)c2)ccc2nc(NC(=O)C3CC3)sc12	0.859	0.838
O=C(c1ccc(C(=O)N2CCC(N3CCCC3)CC2)c(Nc2ccccc2)c1)N1CCC(N2CCCC2)CC1	0.992	0.876

SMILES	cell viability [1]	cell viability [2]
COc1cc2c(cc1OCCCN1CCCC1)N=C(N)C21CCC1	1.05	0.894
O=C(Nc1c[nH]nc1-c1nc2ccc(CN3CCOCC3)cc2[nH]1)NC1CC1	0.667	0.804
CC(C)(CCCCCC(O)CCCCCC(C)(C)C(=O)O)C(=O)O	0.956	0.838
O=C(O)c1ccc(CN2CCC(CN[C@@H]3C[C@H]3c3ccccc3)CC2)cc1	0.977	0.916
COc1cc2c(NC3CCN(C)CC3)nc(N3CCCN(C)CC3)nc2cc1OCCCN(C)C	0.78	0.849
O=C(c1cc(Cc2n[nH]c(=O)c3ccccc23)ccc1F)N1CCN(C(=O)C2CC2)CC1	0.937	0.808
O=C(c1ccc(/C=C/c2n[nH]c3ccccc23)cc1)N1CCNCC1	0.84	0.586
COc1ccc(-c2nc(N3CCOCC3)c3sc(CN(C)c4ncc(C(=O)NO)cn4)cc3n2)cn1	0.508	0.501
C[C@@H]1CC(=O)Nc2cccc(-c3ccc4c(c3)c(-c3cnn(C)c3)nn4C)c2N1	0.628	0.703
O=C(O)[C@@]1(CCCCCCOc2ccc(Cl)cc2)CO1	1.03	1.02
O=C(CCCCCN1C(=O)c2cccc3cccc(c23)C1=O)NO	0.576	0.526
O=C(O)C1(C(=O)O)CCC1.[NH2-].[NH2-].[Pt+2]	1.1	0.893
C1=N/C2=N/c3ccc(OCCN4CCCC4)c(c3)COC/C=C/COCc3cccc(c3)C(=C1)N2	0.706	0.755
Cc1cc(C)c(CNC(=O)c2cc(-c3ccc(CN4CCOCC4)cc3)cc3c2cnn3C2CCCC2)c(=O)[nH]1	0.664	0.819
O=c1c(-n2ccnn2)c[nH]n1-c1cc(N2CCOCC2)ncn1	0.927	0.933
O=C(/C=C/N1C[C@H]2C[C@@H]1CN2c1ccccn1)c1ccccc1O	1.18	1.08
O=c1ncccn1[C@@H]1O[C@H](CO)[C@@H](O)[C@H]1O	0.938	0.936
CCCCOc1ccc(CC(=O)NO)cc1	1.03	0.969
O=C(NC[C@H](O)CN1CCc2ccccc2C1)c1cc(NC2COC2)ncn1	1.02	0.926
Cc1nc(Nc2cnn(C3CCNCC3)c2)nc2c1N(C)C(=O)c1cc3ccccc3cc1N2C	0.983	0.838
CCCOc1ccn2c(C(C)=O)cc(-c3ccccc3S(C)(=O)=O)c2c1	1.14	1.02

SMILES	cell viability [1]	cell viability [2]
O=C(NCc1ccncc1)C12CC3CC(C1)CC(c1ccc(Cl)cc1)(C3)C2	0.934	0.919
N#Cc1c(-c2ccccc2)cc(-c2cc(Br)ccc2O)[nH]c1=O	0.771	1.15
NC(=O)c1ccccn1	1.01	1.11
O=C([C@@H](Cc1cccc(C(F)(F)F)c1)NS(=O)(=O)c1cc(F)c2c(c1)CCNC2)N1CCCC1	1.07 and 0.87	1 and 0.798
CCOC(=O)c1ccc(NC(=O)O[C@H]2[C@H](OC(=O)Nc3ccc4c(c3)OCO4)[C@@H](OC(=O)Nc3ccc4c(c3)OCO4)[C@@H](OC)O[C@@H]2CO)cc1	0.897	0.936
O=C(O)c1ccccc1Nc1cccc(C(F)(F)F)c1	0.921	0.819
Clc1ccc(NN=C(c2ccccc2)c2ccccn2)nc1	0.641	0.565
N#Cc1ccc(OC2CCC(NC(=O)CCSc3nc4ccccc4c(=O)[nH]3)CC2)cc1 (stereo unspecified)	0.929	0.746
N.N.O=C([O-])C[O-].[Pt+2]	0.861	0.767
O=C1CCc2c(ccc3ccccc23)O1	1.03	0.989
CCS(=O)(=O)Nc1ccc2c(c1)/C(=C(/Nc1ccc(CN3CCCCC3)cc1)c1ccccc1)C(=O)N2	0.382	0.587
N#Cc1c(O)c2c(-c3ccc(-c4ccccc4O)cc3)csc2[nH]c1=O	0.863	0.859
Cc1cnc(Nc2ccc(OCCN3CCCC3)cc2)nc1Nc1cccc(S(=O)(=O)NC(C)(C)C)c1	0.742	0.519
CCS(=O)(=O)c1cccc(-c2cc(C(=O)NC3CCN(C)CC3)c(C)c3[nH]c4ncc(C)cc4c23)c1	0.863	0.824
CC(C)c1cc(CNc2nc(Nc3cc(C4CC4)[nH]n3)cc(N3CCN(C)CC3)n2)on1	0.299	0.583
O=C(O)CCNc1cc(N2CCc3ccccc3CC2)nc(-c2ccccn2)n1	1	0.968
Cc1cc(/N=N/c2ccc(S(=O)(=O)Nc3ccccn3)cc2)c(N)cc1O	1.08	0.672
COc1cccc2c1C(=O)c1c(O)c3c(c(O)c1C2=O)C[C@@](O)(C(=O)CO)C[C@@H]3O[C@H]1C[C@H](N)[C@H](O)[C@H](C)O1	0.38	0.46
N=C(N)NC(=N)NCCc1ccccc1	0.911	0.987
O=C(CCCCCCC(=O)NO)NO	0.882	0.808
